The assay has as its system BDF1 mice, P388 leukemia ip, median survival T/C. Briefly: NCI In Vivo Anticancer Drug Screen. Data for tumor model P388 Leukemia (intraperitoneal) in B6D2F1 (BDF1) mice. Conditions: T/C endpoint: median survival time, higher T/C = longer survival. A digest of the protocol: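 Each value expresses how treatment altered survival: treated-mouse outcome over vehicle-mouse outcome, both groups bearing the transplanted tumour.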

The mark [1] stands for this setting: dose: 100.0 mg/kg/injection, schedule: Q04DX002 (ip), vehicle: saline with Tween-80.
The mark [2] stands for this setting: dose: 200.0 mg/kg/injection, schedule: Q04DX002 (ip), vehicle: saline with Tween-80.
[3] abbreviates: dose: 400.0 mg/kg/injection, schedule: Q04DX002 (ip), vehicle: saline with Tween-80.
The mark [4] stands for this setting: dose: 50.0 mg/kg/injection, schedule: Q04DX003 (ip), vehicle: saline with Tween-80.
The mark [5] stands for this setting: dose: 200.0 mg/kg/injection, schedule: Q01DX009 (ip), vehicle: saline with Tween-80.
Where [6] appears, read: dose: 400.0 mg/kg/injection, schedule: Q01DX009 (ip), vehicle: saline with Tween-80.

Each structure is given as a SMILES string. The list is a part of this screen's results and no random one: it is rich in T/C values a quarter to a half above the control, in often repeated tests (any T/C) and in doses without a T/C. Further doses and runs are listed elsewhere. T/C is the treated group as % of the vehicle group. Some entries give survivors of the animals treated and no T/C: the source files T/C as zero there, which appears to mark a toxic dose or a test without result, not a measured value. Some doses without a T/C left all or most animals alive at the check, yet need not have been tolerated: survival well below the control is almost never listed, so the zero probably covers shortened survival too. Counts of survivors are from the toxicity check (mostly the fifth day) where no day follows; animals may have died later. Schedules are NCI's codes, read here as Q, the interval in days (D) or hours (H), X, the number of doses. Some entries were tested several times; the values are given in rising order. Where survival is the endpoint, this PubChem deposit counts one and a half times the control or more as active, and values a quarter to a half above the control carry no call in these data; other NCI protocols may use other cut-offs. Some T/C values are followed by the survivors on the day toxicity was checked, most often the fifth; without a count, all were alive then.

Take `CN(C)c1ncnc2nsnc12`: the survivor count by setting is: (dose: 150.0 mg/kg/injection, schedule: Q04DX003 (ip), vehicle: saline with Tween-80) 2 of 6; (dose: 300.0 mg/kg/injection, schedule: Q04DX003 (ip), vehicle: saline with Tween-80) 0 of 6.

As for `CCC1C/C(=C2/NC3CCCCC3NC2=O)C(=O)O1` (stereo not drawn), the survivor count under setting [1] is on record as 0 of 6, the survivor count under setting [2] was 3 of 6 and the survivor count under setting [3] is reported as 0 of 6.

As to `CCCCCC[P+](c1ccccc1)(c1ccccc1)c1ccccc1`, the survivor count is given as 3 of 6 (dose: 25.0 mg/kg/injection, schedule: Q01DX009 (ip), vehicle: saline) and 4 of 6 (dose: 25.0 mg/kg/injection, schedule: Q04DX003 (ip), vehicle: saline).

In the case of `CSc1ncnc2c1ncn2C1OC(CO)C(O)C1O` (stereo not drawn), for the setting “dose: 16.0 mg/kg/injection, schedule: Q01DX010 (ip), vehicle: saline”, the T/C is 136 % of control.

For the compound `Nc1ncnc2[nH]ncc12`, the T/C by setting is: (dose: 1.5 mg/kg/injection, schedule: Q01DX010 (ip), vehicle: saline) 125 % of control; (dose: 6.0 mg/kg/injection, schedule: Q01DX010 (ip), vehicle: saline) 125 % of control.

Regarding `c1cnc2[nH]cnc2n1`, the survivor count (dose: 400.0 mg/kg/injection, schedule: Q01DX009 (ip), vehicle: saline) is 5 of 6.

Take `C[n+]1c2cc(N)ccc2cc2ccc(N)cc21`: the T/C was 138 % of control (dose: 3.5 mg/kg/injection, schedule: Q01DX009 (ip), vehicle: saline) and 144 % of control (dose: 5.3 mg/kg/injection, schedule: Q01DX009 (ip), vehicle: saline). In addition, the survivor count (dose: 18.0 mg/kg/injection, schedule: Q01DX009 (ip), vehicle: saline) is reported as 5 of 6.

For `Cc1ccc(OCc2c(COc3ccc(Cl)cc3)sc3ccc(Cl)cc23)cc1`, the survivor count under setting [4] is on record as 6 of 6.

As for `CC(C)c1nsc(N)c1C(N)=O`, under setting [5], the survivor count is on record as 5 of 6.

As to `COCCc1ccncc1`, the survivor count under setting [6] is listed as 1 of 6.

Regarding `CC1CCC2=C(C1)S(=O)(=O)CC2` (stereo not drawn), the survivor count is, setting by setting: under setting [1], 0 of 6; under setting [2], 0 of 6; under setting [3], 0 of 6.

As to `Fc1ccc(P(c2ccc(F)cc2)c2ccc(F)cc2)cc1`, the survivor count (dose: 12.5 mg/kg/injection, schedule: Q01DX009 (ip), vehicle: Klucel (hydroxypropylcellulose) (HPC)) was 6 of 6.

As for `COc1cc(NS(=O)(=O)c2ccccc2)ccc1C`, the survivor count (dose: 200.0 mg/kg/injection, schedule: Q01DX009 (ip), vehicle: Klucel (hydroxypropylcellulose) (HPC)) is reported as 6 of 6 and the survivor count (dose: 400.0 mg/kg/injection, schedule: Q01DX009 (ip), vehicle: Klucel (hydroxypropylcellulose) (HPC)) is reported as 6 of 6.

As to `COc1cc2cc3c4ccccc4cc[n+]3c(C)c2cc1OC` (tested in a mixture with another compound), the T/C (dose: 5.0 mg/kg/injection, schedule: Q01DX009 (ip), vehicle: saline) is 140 % of control; the T/C (dose: 10.0 mg/kg/injection, schedule: Q01DX009 (ip), vehicle: saline) was 136 % of control; the T/C (dose: 10.0 mg/kg/injection, schedule: Q04DX003 (ip), vehicle: saline) was 137 % of control [5 of 6 alive]; the T/C (dose: 20.0 mg/kg/injection, schedule: Q04DX003 (ip), vehicle: saline) was 141 % of control. Moreover, the survivor count is given as 4 of 6 (dose: 80.0 mg/kg/injection, schedule: Q01DX009 (ip), vehicle: saline); 5 of 6 (dose: 80.0 mg/kg/injection, schedule: Q04DX003 (ip), vehicle: saline); 2 of 6 (dose: 160.0 mg/kg/injection, schedule: Q01DX009 (ip), vehicle: saline); 5 of 6 (dose: 160.0 mg/kg/injection, schedule: Q04DX003 (ip), vehicle: saline); 6 of 6 (dose: 320.0 mg/kg/injection, schedule: Q04DX003 (ip), vehicle: saline).

Consider `CS(=O)(=O)Nc1ccc(Nc2c3ccccc3nc3cc([N+](=O)[O-])ccc23)cc1`, for which the T/C (dose: 0.37 mg/kg/injection, schedule: Q04DX003 (ip), vehicle: saline with Tween-80) was 125 % of control; the T/C (dose: 0.75 mg/kg/injection, schedule: Q04DX003 (ip), vehicle: saline with Tween-80) was 141 and 145 % of control; the T/C (dose: 33.5 mg/kg/injection, schedule: Q04DX003 (ip), vehicle: saline with Tween-80) was 127 % of control. Also, the survivor count (dose: 6.25 mg/kg/injection, schedule: Q01DX009 (ip), vehicle: saline with Tween-80) is 6 of 6; the survivor count (dose: 12.5 mg/kg/injection, schedule: Q01DX009 (ip), vehicle: saline with Tween-80) is recorded as 6 of 6; the survivor count (dose: 25.0 mg/kg/injection, schedule: Q01DX009 (ip), vehicle: saline with Tween-80) is 3 of 6 and 5 of 6; the survivor count (dose: 50.0 mg/kg/injection, schedule: Q01DX009 (ip), vehicle: saline with Tween-80) is on record as 5 of 6; the survivor count under setting [4] is given as 6 of 6; the survivor count (dose: 75.0 mg/kg/injection, schedule: Q04DX003 (ip), vehicle: saline with Tween-80) is 4 of 6. Also, the survivor count (dose: 100.0 mg/kg/injection, schedule: Q01DX009 (ip), vehicle: saline with Tween-80) is given as 6 of 6.

For the compound `CCCCCCCCCC(=O)CCCCCCC`, the T/C is, setting by setting: (dose: 200.0 mg/kg/injection, schedule: Q04DX003 (ip), vehicle: other) 125 % of control; (dose: 266.0 mg/kg/injection, schedule: Q04DX003 (ip), vehicle: other) 127 % of control; (dose: 400.0 mg/kg/injection, schedule: Q04DX003 (ip), vehicle: other) 130 % of control.

As to `O=C(CC(=O)C(F)(F)F)c1ccc2c(c1)Cc1ccccc1-2`, for the setting “dose: 400.0 mg/kg/injection, schedule: Q04DX003 (ip), vehicle: saline with Tween-80”, the survivor count was 3 of 6.

In the case of `CC1(C)CS(=O)(=O)CC1=O`, the survivor count (dose: 200.0 mg/kg/injection, schedule: Q01DX001 (ip), vehicle: Klucel (hydroxypropylcellulose) (HPC)) is given as 3 of 6 and the survivor count (dose: 400.0 mg/kg/injection, schedule: Q01DX001 (ip), vehicle: Klucel (hydroxypropylcellulose) (HPC)) is reported as 2 of 6.

On to `CCCP(CCC)c1ccccc1`, for which the survivor count (dose: 100.0 mg/kg/injection, schedule: Q01DX009 (sc), vehicle: olive oil, sesame oil, peanut oil) is 6 of 6 and the survivor count (dose: 200.0 mg/kg/injection, schedule: Q01DX009 (sc), vehicle: olive oil, sesame oil, peanut oil) is on record as 6 of 6.

Regarding `CC(=O)[C@H]1CC[C@H]2[C@@H]3C[C@H](C)C4=CC(=O)CC[C@]4(C)[C@@]3(F)[C@@H](O)C[C@]12C`, the survivor count under setting [5] is 5 of 6 and the survivor count under setting [6] is listed as 6 of 6.

As for `COc1ccc(OC)c([N+](=O)[O-])c1`, the survivor count (dose: 100.0 mg/kg/injection, schedule: Q01DX009 (ip), vehicle: Klucel (hydroxypropylcellulose) (HPC)) was 6 of 6.

For the origin of these results see PubChem BioAssay AID328 (DTP/NCI, 2004).
